Experimental findings from paper PMC7199003 are described below.

By UniProt entry, the sequences of proteins in these tests, tags left out.
UniProt P02730: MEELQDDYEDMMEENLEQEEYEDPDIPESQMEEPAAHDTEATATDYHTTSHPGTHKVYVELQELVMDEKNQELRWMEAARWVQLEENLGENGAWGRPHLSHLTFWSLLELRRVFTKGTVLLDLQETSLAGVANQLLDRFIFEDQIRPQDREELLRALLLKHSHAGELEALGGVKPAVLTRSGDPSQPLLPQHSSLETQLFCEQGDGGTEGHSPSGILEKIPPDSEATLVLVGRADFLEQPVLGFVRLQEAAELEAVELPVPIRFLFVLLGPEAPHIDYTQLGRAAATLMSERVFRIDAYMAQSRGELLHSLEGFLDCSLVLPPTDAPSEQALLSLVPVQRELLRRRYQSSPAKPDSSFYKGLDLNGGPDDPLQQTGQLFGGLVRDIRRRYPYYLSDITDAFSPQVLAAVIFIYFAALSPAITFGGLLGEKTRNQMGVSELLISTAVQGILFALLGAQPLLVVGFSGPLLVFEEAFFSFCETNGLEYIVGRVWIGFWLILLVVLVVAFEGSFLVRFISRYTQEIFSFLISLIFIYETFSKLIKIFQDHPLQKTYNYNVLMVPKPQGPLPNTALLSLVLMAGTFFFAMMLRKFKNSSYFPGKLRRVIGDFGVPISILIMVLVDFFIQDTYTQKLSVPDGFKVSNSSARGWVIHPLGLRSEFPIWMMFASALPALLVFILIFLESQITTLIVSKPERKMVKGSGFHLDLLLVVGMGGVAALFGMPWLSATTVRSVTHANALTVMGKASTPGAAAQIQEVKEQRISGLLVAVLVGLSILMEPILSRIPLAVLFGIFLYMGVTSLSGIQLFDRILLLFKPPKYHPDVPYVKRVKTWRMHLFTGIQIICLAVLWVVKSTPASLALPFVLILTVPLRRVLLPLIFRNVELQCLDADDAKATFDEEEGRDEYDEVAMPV
UniProt P35579: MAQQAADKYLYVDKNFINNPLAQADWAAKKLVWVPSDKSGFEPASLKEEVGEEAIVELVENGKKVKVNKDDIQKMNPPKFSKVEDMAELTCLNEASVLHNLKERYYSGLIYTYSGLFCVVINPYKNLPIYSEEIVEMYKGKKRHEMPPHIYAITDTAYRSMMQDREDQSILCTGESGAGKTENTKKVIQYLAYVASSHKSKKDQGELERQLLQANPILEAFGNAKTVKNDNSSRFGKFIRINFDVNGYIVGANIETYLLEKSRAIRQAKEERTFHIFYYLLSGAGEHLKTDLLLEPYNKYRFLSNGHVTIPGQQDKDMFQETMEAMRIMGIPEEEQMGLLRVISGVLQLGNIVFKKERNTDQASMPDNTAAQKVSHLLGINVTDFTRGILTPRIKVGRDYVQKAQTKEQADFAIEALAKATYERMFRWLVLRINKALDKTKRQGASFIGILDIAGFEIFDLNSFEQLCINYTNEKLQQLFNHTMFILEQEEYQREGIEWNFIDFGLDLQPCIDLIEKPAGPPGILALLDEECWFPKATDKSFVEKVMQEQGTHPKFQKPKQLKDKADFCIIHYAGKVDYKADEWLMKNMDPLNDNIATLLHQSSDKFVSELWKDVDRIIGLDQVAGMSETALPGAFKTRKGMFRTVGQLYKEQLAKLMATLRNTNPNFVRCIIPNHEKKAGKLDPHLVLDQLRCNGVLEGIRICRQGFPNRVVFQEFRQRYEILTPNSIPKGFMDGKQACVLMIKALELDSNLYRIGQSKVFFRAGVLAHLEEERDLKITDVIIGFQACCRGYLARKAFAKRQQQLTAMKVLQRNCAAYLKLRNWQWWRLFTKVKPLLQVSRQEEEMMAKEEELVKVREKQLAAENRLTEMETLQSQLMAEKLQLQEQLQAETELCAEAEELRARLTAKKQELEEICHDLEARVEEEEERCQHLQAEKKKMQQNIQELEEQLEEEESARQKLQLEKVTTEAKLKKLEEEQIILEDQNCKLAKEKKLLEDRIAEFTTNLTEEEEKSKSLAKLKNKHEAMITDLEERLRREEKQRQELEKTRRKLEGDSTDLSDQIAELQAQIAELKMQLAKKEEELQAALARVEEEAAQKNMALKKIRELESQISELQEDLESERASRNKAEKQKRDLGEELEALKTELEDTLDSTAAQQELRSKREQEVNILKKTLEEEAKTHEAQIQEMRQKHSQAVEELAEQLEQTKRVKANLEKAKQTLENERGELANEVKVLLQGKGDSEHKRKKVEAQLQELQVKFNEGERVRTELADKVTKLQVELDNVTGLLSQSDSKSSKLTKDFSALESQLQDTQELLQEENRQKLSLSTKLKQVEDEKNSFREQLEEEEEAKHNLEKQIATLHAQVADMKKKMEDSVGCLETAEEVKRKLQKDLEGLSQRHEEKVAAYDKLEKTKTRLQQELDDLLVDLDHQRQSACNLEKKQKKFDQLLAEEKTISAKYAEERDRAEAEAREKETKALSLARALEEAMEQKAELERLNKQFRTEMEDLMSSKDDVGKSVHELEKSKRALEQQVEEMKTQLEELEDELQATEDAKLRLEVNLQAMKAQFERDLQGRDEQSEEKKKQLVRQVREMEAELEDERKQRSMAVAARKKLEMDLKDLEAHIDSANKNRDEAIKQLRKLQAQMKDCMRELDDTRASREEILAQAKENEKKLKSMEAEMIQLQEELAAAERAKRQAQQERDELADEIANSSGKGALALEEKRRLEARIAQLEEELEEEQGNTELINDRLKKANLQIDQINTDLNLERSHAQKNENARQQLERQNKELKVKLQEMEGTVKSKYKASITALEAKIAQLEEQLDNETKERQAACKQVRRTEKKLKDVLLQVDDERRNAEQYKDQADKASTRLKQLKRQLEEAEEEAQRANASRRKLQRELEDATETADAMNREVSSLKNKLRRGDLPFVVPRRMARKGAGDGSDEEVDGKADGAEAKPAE
UniProt P35580: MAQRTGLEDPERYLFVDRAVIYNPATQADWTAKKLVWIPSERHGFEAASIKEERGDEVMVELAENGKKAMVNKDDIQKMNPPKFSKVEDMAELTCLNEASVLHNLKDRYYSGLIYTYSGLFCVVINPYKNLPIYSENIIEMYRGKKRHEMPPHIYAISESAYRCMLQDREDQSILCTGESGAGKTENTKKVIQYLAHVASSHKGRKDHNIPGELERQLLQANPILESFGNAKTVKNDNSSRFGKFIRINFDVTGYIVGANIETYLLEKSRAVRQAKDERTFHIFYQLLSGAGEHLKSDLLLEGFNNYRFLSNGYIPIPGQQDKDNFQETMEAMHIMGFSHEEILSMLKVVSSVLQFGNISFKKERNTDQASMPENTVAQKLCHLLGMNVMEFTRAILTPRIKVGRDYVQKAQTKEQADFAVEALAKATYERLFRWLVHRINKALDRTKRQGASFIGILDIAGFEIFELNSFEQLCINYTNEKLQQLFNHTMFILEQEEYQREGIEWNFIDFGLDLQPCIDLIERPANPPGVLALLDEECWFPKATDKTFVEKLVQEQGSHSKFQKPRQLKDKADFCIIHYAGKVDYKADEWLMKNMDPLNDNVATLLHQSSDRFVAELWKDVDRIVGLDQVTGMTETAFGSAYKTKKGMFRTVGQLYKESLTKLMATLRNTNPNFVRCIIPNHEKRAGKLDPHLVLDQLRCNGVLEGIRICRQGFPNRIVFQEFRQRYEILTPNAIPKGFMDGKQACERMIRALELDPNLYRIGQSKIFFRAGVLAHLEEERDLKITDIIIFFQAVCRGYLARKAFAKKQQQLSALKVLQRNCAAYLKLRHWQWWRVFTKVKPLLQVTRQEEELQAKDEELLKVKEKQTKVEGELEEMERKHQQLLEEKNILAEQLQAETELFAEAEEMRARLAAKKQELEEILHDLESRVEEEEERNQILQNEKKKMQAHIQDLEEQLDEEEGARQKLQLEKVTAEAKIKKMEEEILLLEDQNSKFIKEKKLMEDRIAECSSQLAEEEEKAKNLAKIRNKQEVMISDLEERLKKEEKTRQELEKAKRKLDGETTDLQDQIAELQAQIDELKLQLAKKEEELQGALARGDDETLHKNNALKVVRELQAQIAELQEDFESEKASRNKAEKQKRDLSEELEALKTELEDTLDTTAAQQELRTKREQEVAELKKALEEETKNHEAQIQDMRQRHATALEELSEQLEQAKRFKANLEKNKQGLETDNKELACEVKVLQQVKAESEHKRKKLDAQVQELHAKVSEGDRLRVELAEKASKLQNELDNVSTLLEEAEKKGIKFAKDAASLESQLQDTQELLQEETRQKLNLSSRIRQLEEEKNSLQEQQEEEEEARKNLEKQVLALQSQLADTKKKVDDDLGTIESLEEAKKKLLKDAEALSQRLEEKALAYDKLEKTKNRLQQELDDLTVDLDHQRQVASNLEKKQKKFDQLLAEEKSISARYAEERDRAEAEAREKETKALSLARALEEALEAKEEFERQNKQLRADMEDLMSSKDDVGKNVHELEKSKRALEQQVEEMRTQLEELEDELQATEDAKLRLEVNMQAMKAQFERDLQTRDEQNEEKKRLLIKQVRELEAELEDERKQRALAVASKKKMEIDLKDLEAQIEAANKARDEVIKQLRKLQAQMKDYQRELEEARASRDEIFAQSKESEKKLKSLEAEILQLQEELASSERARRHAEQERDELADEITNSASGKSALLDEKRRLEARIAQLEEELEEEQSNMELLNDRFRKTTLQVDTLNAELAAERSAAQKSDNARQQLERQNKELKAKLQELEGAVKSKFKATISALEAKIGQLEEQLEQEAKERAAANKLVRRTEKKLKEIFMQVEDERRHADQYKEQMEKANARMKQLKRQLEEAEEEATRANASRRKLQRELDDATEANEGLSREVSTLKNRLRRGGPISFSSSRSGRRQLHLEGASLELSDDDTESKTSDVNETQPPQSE

The target in this test is erythrocyte anion exchanger 1 (AE1, band 3), wild type (human (endogenous in cultured erythroblasts)) (UniProt P02730). In words: affinity purification with mass spectrometry; band 3 immunoprecipitated with rat monoclonal anti-band 3 BRAC66 on protein G sepharose from lysates (1% Nonidet-P40, 150 mM KCl, 10 mM Tris-HCl, pH 7.4) of cultured erythroblasts: homozygous SAO day 27, control day 14; SDS-PAGE, LC-MS/MS, spectral counts compared.

These are yes or no findings as the source states them, for the method shown. In cells and extracts the contact can be indirect. These calls come from enrichment with a bait or labelling near it, and not all partners need be listed. No binding means not detected with the bait.

Turning to “non-muscle myosin IIA (from UniProt P35579 1-1960)”, the binding entry is reported as “no binding”. The result for “non-muscle myosin IIB (from UniProt P35580 1-1976)” reads “no binding”.
